Data published in patent EP4603105A1 (CHUGAI SEIYAKU KABUSHIKI KAISHA, priority 2022, dated 2024).

Experiment: general procedure: Fmoc solid-phase peptide synthesis; CTC resin (2-chlorotrityl)
Settings: late stage modification step

PEPTIDE1{[MeLeu].I.[MeGly].[MeAhp-7br].[NbrPhe(4-CF3)].[MeGly].[Hph(4-CF3-35-F2)].[Hyp(3)(Tfp)].[cVal].[MeGly(cPent)].[MeAsp].[mor]}$PEPTIDE1,PEPTIDE1,1:R1-11:R3|PEPTIDE1,PEPTIDE1,4:R3-5:R3$$$V2.0
step yield: 33%

Some peptides are written in HELM: one residue between dots, names in brackets for other building blocks, links after the first $.
